# Measured values taken from the M2OR odorant receptor database.
# The chains behind the UniProt entries cited, without tags or fusion partners. Where a name states a change or a piece, a line headed by the entry shows the natural chain unless it says otherwise.
# UniProt Q8VG02: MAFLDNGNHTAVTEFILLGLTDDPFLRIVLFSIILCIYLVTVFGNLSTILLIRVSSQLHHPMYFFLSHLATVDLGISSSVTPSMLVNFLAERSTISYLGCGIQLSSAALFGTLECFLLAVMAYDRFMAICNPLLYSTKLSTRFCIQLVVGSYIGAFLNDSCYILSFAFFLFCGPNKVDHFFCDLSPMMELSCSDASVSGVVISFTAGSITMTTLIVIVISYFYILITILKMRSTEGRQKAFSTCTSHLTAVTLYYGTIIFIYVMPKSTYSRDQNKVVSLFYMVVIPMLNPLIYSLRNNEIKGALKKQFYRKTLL
# UniProt Q60886: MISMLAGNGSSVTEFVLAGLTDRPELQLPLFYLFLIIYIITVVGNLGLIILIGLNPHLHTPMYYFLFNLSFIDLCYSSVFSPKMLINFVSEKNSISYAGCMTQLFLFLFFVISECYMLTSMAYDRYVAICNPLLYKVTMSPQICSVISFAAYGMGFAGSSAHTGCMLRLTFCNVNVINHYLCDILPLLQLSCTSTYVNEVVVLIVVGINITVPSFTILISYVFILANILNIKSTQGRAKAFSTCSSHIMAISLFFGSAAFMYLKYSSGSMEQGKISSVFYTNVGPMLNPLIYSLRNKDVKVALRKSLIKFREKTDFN
# Only a part is listed here, and it is no random draw. Calls are pooled over several reports, among them a noisy single-well screen. Some of the results follow.
# Tests used:
# Settings in all cases: stereoisomer not certain
# Or5p64 (Mus musculus) = Or5p64 (Mus musculus) (UniProt Q8VG02)
# Summary of the method: (§1)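 Whether a receptor–molecule pair is responsive (active) rests on the original authors' judgment that its measured signal was statistically different from baseline. Pairs without that judgment are non-responsive (inactive). Sources used varied assay methods, commonly transient luciferase assays in mammalian cell lines.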
# Or5p80 (Mus musculus) = target: T1, Or5p80 (Mus musculus) (UniProt Q8VG42)
# T1 sequence (whole entry): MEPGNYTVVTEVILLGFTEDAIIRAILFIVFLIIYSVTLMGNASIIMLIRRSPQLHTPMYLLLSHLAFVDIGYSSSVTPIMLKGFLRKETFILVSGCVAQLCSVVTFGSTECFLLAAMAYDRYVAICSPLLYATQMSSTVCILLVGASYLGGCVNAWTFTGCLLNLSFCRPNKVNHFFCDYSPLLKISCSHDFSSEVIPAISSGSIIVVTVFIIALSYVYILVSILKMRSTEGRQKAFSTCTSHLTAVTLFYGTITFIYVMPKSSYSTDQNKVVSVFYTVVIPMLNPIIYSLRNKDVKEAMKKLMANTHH
# Summary of the method: as §1
# Or7a40 (Mus musculus) = target: T2, Or7a40 (Mus musculus) (UniProt Q9JHB2)
# T2 sequence (whole entry): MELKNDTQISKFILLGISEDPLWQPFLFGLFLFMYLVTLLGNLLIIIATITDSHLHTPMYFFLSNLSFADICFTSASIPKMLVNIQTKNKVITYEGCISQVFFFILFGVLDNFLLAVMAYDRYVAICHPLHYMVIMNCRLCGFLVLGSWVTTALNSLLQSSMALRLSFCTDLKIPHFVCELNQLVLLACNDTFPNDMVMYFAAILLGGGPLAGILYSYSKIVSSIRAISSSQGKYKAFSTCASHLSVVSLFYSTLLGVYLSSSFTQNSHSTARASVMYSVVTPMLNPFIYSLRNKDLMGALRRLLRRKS
# Summary of the method: as §1
# Or8b3 (Mus musculus) = Or8b3 (Mus musculus) (UniProt Q60886)
# Summary of the method: as §1
# Q7TRX1 A108G A152G V205I = system: Q7TRX1 A108G A152G V205I
# Summary of the method: as §1
# Q7TRX1 A108G A152G = system: Q7TRX1 A108G A152G
# Summary of the method: as §1
# Q7TRX1 A108G V205I = system: Q7TRX1 A108G V205I
# Summary of the method: as §1
# Q7TRX1 A108G = system: Q7TRX1 A108G
# Summary of the method: as §1
# Q7TRX1 A152G V205I = system: Q7TRX1 A152G V205I
# Summary of the method: as §1
# Q7TRX1 A152G = system: Q7TRX1 A152G
# Summary of the method: as §1
# 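Note: active if original authors judged signal statistically different from baseline.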
smiles,measurement,setting,value
O=C1CCCCCCCCCCCCCCO1,odorant receptor agonist call,Or5p64 (Mus musculus),inactive
CC(C)(O)CCCC1=CCC(C=O)CC1 (stereo unspecified),odorant receptor agonist call,Or5p80 (Mus musculus),inactive
same,odorant receptor agonist call,Or7a40 (Mus musculus),inactive
CC12CCC(C1)C(C)(C)C2=O (stereo unspecified),odorant receptor agonist call,Or5p80 (Mus musculus),inactive
same,odorant receptor agonist call,Or7a40 (Mus musculus),inactive
CCCCCCCC=O,odorant receptor agonist call,Or5p80 (Mus musculus),inactive
same,odorant receptor agonist call,Or7a40 (Mus musculus),inactive
CCCCCCCCCC=O,odorant receptor agonist call,Or5p80 (Mus musculus),inactive
same,odorant receptor agonist call,Or7a40 (Mus musculus),inactive
C=C(C)C1CC=C(C)C(=O)C1 (stereo unspecified),odorant receptor agonist call,Or5p80 (Mus musculus),active
same,odorant receptor agonist call,Or7a40 (Mus musculus),inactive
same,odorant receptor agonist call,Or8b3 (Mus musculus),active
same,odorant receptor agonist call,Q7TRX1 A108G A152G V205I,active
same,odorant receptor agonist call,Q7TRX1 A108G A152G,active
same,odorant receptor agonist call,Q7TRX1 A108G V205I,active
same,odorant receptor agonist call,Q7TRX1 A108G,active
same,odorant receptor agonist call,Q7TRX1 A152G V205I,active
same,odorant receptor agonist call,Q7TRX1 A152G,active
O=C1CCCCC1,odorant receptor agonist call,Or5p80 (Mus musculus),inactive
same,odorant receptor agonist call,Or7a40 (Mus musculus),inactive
CCCCCC(C)=O,odorant receptor agonist call,Or5p80 (Mus musculus),inactive
same,odorant receptor agonist call,Or7a40 (Mus musculus),inactive
CCCCCCC=O,odorant receptor agonist call,Or5p80 (Mus musculus),inactive
same,odorant receptor agonist call,Or7a40 (Mus musculus),inactive
CC(=O)c1ccccc1,odorant receptor agonist call,Or5p80 (Mus musculus),inactive
same,odorant receptor agonist call,Or7a40 (Mus musculus),inactive
same,odorant receptor agonist call,Or8b3 (Mus musculus),inactive
CCCCCC(=O)O,odorant receptor agonist call,Or5p80 (Mus musculus),inactive
same,odorant receptor agonist call,Or7a40 (Mus musculus),inactive
CCCCCCCCC=O,odorant receptor agonist call,Or5p80 (Mus musculus),inactive
same,odorant receptor agonist call,Or7a40 (Mus musculus),inactive

# At a glance, some entries already given.
smiles,measurement,setting,value
CC(=O)c1ccccc1,odorant receptor agonist call,Or7a40 (Mus musculus),inactive
same,odorant receptor agonist call,Or8b3 (Mus musculus),inactive
